This passage reports binding results from publication PMC3229508.

Protein sequences, listed by entry. Tags and fused reporters are not part of them.
UniProt Q9Z336: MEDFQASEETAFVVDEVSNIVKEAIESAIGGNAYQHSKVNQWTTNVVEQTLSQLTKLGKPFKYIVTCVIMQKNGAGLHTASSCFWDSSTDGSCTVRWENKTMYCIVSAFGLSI
UniProt P21796: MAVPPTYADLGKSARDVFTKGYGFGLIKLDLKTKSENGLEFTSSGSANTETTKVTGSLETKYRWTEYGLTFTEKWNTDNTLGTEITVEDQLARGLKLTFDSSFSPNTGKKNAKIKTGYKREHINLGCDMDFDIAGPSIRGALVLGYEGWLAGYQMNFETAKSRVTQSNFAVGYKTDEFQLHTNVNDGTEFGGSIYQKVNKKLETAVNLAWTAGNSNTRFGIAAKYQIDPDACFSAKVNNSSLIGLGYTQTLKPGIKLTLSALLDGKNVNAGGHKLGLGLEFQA
UniProt Q9Z2L0: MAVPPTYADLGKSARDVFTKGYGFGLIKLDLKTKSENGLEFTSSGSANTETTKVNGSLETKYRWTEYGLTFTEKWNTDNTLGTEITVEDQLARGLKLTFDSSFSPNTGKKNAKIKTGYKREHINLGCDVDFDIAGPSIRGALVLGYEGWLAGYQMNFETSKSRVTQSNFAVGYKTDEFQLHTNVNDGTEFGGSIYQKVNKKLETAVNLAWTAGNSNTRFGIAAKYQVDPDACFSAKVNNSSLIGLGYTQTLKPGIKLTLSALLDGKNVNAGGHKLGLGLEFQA
UniProt P63172: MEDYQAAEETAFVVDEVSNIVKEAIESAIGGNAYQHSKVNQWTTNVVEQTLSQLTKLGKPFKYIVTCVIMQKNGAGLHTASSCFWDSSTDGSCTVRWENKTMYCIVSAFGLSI

In assay [1] the target is DYNLT1 (dynein light chain Tctex-type 1), endogenous in neonatal rat cardiomyocytes (rat (endogenous in neonatal rat cardiomyocytes)) (UniProt Q9Z336). Kind of assay: co-IP; endogenous proteins in whole-cell lysates of CMs and HeLa cells (RIPA buffer, 2 mM PMSF, protease inhibitors); anti-DYNLT1 (goat E-16 or rabbit H-60) or anti-VDAC1 (FL-283) for 6 h at 4°C, protein A/G-Sepharose overnight at 4°C, washed with PBS; immunoblot; isotype controls. Background: In western blotting, separated proteins are transferred to a membrane and probed.

The target in assay [2] is VDAC1 (voltage-dependent anion channel 1), endogenous in HeLa cells (human (endogenous in HeLa)) (UniProt P21796). The assay is described as above.
In assay [3] the target is VDAC1 (voltage-dependent anion channel 1), endogenous in neonatal rat cardiomyocytes (rat (endogenous in neonatal rat cardiomyocytes)) (UniProt Q9Z2L0). The assay is described as above.
Assay [4] has as its target hVDAC1 (voltage-dependent anion channel 1), yeast two-hybrid bait from pDBleu-hVDAC1 (human) (UniProt P21796). Kind of assay: two-hybrid; library screen in yeast strain MaV203; bait pDBleu-hVDAC1, prey pPC86 cDNA library from human hepatocytes; selection plates lacking His and Trp, LacZ filter assay; prey plasmids re-transformed with the bait or control bait plasmids.
In assay [5] the target is DYNLT1 (dynein light chain Tctex-type 1), endogenous in HeLa cells (human (endogenous in HeLa)) (UniProt P63172). Kind of assay: co-IP; endogenous proteins in whole-cell lysates of CMs and HeLa cells (RIPA buffer, 2 mM PMSF, protease inhibitors); anti-DYNLT1 (goat E-16 or rabbit H-60) or anti-VDAC1 (FL-283) for 6 h at 4°C, protein A/G-Sepharose overnight at 4°C, washed with PBS; immunoblot; isotype controls.

No constants are given. Whether binding was seen depends on the method and setting. For some assays here: Binding seen in cells or lysates may run through a third protein. Some binding calls cover weakened binding; strength is not graded here.

As for “VDAC1 (voltage-dependent anion channel 1), endogenous in neonatal rat cardiomyocytes (from UniProt Q9Z2L0 1-283)”, in assay [1], the binding entry is “binds”.

With “DYNLT1 (dynein light chain Tctex-type 1), endogenous in HeLa cells (from UniProt P63172 1-113)”, the binding result in assay [2] is listed as “binds”.

For the substance “DYNLT1 (dynein light chain Tctex-type 1), endogenous in neonatal rat cardiomyocytes (from UniProt Q9Z336 1-113)”, the binding result in assay [3] is listed as “binds”.

Regarding “DYNLT1 (dynein light chain Tctex-type 1), yeast two-hybrid prey clone from a human hepatocyte cDNA library (from UniProt P63172 1-113)”, the binding entry in assay [4] is listed as “binds”.

Turning to “VDAC1 (voltage-dependent anion channel 1), endogenous in HeLa cells (from UniProt P21796 1-283)”, in assay [5], the binding entry is given as “binds”.
